The list shows a part of the results.
Key:
Test in all cases: log2 fold change, soluble protein after heating vs DMSO (PISA); higher = thermal stabilisation; K562 cells, 10 uM, 30 min; active = over 0.2 and 3.5 SD of the protein, either way, in both replicates (recomputed)
[1] = compound: CS(=O)(=O)c1ccc(-c2cnc(N)c(C(=O)Nc3ccccc3)n2)cc1
Summary of the method: (§1)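 Thermal stability values are relative to control samples and come from duplicates. They are expressed as log2 fold changes. For measurement, K562 cells (2×10^6 cells/mL) received 10 μM compound for 30 min, and aliquots were heated for 3 min over 48°C-58°C, pooled, and extracted at 4°C in PBS with 0.5% NP-40. Soluble protein, the supernatant after 21,000xg for 90 min, was quantified by TMTpro 16plex LC-MS/MS with equalised channel sums.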

Protein sequences, listed by entry. Tags and fused reporters are not part of them. Lines headed by an entry give the natural chain unless they say otherwise; changes in a name come on top.
UniProt Q5SVS4: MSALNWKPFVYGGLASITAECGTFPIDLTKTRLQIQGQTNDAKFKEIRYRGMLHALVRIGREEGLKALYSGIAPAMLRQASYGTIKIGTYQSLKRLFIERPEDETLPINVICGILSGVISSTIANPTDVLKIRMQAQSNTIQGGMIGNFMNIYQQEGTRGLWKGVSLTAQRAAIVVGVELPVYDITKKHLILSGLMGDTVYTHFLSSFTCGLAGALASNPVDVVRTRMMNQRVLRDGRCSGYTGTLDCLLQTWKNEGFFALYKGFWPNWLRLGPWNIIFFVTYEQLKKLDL
UniProt P31641: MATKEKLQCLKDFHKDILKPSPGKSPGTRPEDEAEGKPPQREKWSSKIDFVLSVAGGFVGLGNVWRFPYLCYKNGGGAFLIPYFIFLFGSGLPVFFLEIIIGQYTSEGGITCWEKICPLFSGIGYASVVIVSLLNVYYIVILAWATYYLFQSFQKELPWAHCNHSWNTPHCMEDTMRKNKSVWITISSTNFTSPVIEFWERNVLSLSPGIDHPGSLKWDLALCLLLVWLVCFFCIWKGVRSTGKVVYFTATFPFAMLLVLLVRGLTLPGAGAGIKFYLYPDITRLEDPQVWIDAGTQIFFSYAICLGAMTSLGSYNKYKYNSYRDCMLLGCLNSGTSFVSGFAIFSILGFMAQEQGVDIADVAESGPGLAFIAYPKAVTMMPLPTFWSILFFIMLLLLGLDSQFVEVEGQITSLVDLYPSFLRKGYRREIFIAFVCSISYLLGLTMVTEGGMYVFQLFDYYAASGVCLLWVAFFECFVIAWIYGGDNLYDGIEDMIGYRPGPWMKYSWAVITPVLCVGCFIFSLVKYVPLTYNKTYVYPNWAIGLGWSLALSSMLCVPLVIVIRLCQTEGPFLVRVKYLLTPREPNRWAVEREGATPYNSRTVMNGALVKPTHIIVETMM
UniProt P12235: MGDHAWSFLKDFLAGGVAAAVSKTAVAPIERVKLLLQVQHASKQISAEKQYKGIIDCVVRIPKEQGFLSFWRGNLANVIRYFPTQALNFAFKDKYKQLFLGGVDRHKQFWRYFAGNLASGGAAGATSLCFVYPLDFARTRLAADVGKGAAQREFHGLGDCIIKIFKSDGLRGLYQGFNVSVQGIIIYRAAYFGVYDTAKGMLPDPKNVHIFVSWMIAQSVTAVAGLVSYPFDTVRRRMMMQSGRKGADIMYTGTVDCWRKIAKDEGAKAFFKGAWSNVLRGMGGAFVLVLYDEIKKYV
UniProt Q6PCB7: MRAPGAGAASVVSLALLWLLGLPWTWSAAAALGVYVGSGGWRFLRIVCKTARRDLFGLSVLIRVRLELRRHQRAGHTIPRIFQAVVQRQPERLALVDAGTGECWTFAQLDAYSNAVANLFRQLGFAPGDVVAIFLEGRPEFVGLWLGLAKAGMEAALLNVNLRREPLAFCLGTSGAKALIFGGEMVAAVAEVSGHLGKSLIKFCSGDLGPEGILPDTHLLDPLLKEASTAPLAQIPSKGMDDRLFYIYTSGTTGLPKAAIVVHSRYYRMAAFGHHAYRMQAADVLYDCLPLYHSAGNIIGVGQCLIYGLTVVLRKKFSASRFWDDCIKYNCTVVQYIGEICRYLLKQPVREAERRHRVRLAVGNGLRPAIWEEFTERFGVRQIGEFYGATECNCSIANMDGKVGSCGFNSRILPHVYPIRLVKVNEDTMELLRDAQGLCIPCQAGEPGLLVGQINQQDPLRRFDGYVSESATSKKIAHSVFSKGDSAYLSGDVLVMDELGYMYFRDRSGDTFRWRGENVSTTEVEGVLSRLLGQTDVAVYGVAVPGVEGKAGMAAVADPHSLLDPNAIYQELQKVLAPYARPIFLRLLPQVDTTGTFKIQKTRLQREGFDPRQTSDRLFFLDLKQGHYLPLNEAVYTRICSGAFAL
UniProt Q969S0: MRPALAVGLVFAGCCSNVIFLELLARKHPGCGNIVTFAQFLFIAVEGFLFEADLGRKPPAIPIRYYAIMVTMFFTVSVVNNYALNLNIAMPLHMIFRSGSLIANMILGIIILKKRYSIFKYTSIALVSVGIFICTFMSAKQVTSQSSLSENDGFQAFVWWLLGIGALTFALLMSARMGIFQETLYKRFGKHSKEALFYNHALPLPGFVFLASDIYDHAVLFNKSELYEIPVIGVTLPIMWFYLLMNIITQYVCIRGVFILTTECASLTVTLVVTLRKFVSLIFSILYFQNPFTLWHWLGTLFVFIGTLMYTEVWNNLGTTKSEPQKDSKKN
UniProt Q9C0K1: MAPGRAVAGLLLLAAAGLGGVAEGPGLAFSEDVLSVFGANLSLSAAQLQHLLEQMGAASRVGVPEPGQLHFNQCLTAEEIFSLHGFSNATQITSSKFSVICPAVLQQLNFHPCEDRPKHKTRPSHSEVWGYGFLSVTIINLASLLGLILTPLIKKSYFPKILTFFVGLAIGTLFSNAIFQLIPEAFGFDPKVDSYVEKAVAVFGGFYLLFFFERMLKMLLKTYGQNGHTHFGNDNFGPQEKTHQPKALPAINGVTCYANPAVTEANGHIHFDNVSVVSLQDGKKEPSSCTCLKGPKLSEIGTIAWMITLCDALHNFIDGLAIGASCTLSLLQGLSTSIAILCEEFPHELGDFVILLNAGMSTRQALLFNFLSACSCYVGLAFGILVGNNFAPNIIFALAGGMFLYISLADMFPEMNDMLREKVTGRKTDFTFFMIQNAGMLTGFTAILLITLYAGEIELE
UniProt Q3KQZ1: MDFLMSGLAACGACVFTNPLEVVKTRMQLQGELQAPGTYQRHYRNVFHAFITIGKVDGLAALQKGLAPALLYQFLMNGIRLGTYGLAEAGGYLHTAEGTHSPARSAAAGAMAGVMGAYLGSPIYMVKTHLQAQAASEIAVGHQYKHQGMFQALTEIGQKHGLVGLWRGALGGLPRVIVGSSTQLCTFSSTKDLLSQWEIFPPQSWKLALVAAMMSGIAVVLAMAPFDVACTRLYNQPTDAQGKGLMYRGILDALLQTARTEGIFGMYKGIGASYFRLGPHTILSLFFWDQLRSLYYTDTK
UniProt Q96K37: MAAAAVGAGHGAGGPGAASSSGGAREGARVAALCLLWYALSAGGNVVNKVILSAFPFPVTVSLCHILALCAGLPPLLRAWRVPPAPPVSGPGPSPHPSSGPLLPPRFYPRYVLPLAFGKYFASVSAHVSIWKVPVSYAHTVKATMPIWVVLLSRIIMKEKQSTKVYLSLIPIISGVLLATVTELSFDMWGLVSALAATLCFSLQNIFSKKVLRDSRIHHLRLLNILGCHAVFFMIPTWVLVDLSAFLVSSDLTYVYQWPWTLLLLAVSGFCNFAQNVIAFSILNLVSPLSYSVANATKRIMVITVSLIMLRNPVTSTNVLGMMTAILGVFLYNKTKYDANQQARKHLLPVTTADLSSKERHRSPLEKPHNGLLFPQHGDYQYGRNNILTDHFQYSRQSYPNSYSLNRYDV
UniProt Q9Y2P4: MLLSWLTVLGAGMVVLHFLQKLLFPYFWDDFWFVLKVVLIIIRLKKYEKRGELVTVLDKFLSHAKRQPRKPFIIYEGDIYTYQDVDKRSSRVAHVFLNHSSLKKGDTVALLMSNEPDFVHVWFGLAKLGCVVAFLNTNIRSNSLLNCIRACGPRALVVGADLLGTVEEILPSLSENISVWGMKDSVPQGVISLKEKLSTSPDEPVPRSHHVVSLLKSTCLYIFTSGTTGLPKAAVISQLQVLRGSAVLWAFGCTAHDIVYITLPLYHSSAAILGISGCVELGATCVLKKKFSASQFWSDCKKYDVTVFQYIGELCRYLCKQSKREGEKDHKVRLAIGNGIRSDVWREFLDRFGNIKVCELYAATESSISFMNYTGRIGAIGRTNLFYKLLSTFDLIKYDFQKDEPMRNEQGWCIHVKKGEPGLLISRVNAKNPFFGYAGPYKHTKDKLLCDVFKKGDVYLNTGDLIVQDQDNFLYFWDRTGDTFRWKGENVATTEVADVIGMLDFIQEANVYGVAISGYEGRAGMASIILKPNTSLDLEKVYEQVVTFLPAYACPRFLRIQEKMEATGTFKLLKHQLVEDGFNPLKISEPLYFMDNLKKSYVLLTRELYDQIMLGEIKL
UniProt Q7Z2H8: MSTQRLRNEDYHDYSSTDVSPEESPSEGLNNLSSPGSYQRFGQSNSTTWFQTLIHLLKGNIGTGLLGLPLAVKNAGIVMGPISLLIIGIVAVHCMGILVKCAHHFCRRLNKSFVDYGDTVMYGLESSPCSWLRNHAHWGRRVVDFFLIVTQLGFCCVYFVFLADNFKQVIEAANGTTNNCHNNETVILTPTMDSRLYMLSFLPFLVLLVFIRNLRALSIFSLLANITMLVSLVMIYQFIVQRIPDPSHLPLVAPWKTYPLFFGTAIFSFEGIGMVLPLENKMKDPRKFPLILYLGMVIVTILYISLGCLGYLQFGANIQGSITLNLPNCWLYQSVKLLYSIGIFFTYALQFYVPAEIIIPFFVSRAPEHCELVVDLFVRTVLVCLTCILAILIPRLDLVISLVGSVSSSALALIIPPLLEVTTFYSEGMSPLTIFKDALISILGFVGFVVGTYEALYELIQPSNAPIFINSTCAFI

crizotinib = compound: C[C@@H](Oc1cc(-c2cnn(C3CCNCC3)c2)cnc1N)c1c(Cl)ccc(F)c1Cl [crizotinib]
Summary of the method: as §1

[2] = compound: C[C@H](C1=CC=C(C=C1)C(=O)NC2=C3C=CNC3=NC=C2)N
Summary of the method: as §1

duvelisib = compound: C[C@H](Nc1ncnc2nc[nH]c12)c1cc2cccc(Cl)c2c(=O)n1-c1ccccc1 [duvelisib]
Summary of the method: as §1

gandotinib = compound: Cc1cc(Nc2cc(CN3CCOCC3)c3nc(C)c(Cc4ccc(Cl)cc4F)n3n2)n[nH]1 [gandotinib]
Summary of the method: as §1

[3] = compound: Cc1cc(SCc2sc(-c3ccc(C(F)(F)F)cc3)nc2C)ccc1OCC(=O)O
Summary of the method: as §1

doramapimod = compound: Cc1ccc(-n2nc(C(C)(C)C)cc2NC(=O)Nc2ccc(OCCN3CCOCC3)c3ccccc23)cc1 [doramapimod]
Summary of the method: as §1

ispinesib = compound: Cc1ccc(C(=O)N(CCCN)[C@@H](c2nc3cc(Cl)ccc3c(=O)n2Cc2ccccc2)C(C)C)cc1 [ispinesib]
Summary of the method: as §1

[4] = compound: Cc1cccc(CC(=O)N2CCc3c2ccc(-c2cn(C)c4ncnc(N)c24)c3F)n1
Summary of the method: as §1

nilotinib = compound: Cc1cn(-c2cc(NC(=O)c3ccc(C)c(Nc4nccc(-c5cccnc5)n4)c3)cc(C(F)(F)F)c2)cn1 [nilotinib]
Summary of the method: as §1

[5] = compound: Cc1nc(Nc2n[nH]c3c2CN(C(=O)N[C@H](CN(C)C)c2ccccc2)C3(C)C)c2sccc2n1
Summary of the method: as §1

dasatinib = compound: Cc1nc(Nc2ncc(C(=O)Nc3c(C)cccc3Cl)s2)cc(N2CCN(CCO)CC2)n1 [dasatinib]
Summary of the method: as §1

[6] = compound: Cc1ncc(-c2ccnc(Nc3ccc(S(C)(=O)=O)cc3)n2)n1C(C)C
Summary of the method: as §1

[7] = compound: Cn1cc(-c2ccc3c(c2)CCN3C(=O)Cc2cccc(C(F)(F)F)c2)c2c(N)ncnc21
Summary of the method: as §1

[8] = compound: Cn1cc(-c2ccc3nnc(C(F)(F)c4ccc5ncccc5c4)n3n2)cn1
Summary of the method: as §1

tipifarnib = compound: Cn1cncc1[C@@](N)(c1ccc(Cl)cc1)c1ccc2c(c1)c(-c1cccc(Cl)c1)cc(=O)n2C [tipifarnib]
Summary of the method: as §1

[9] = compound: C[C@@H]1COCCN1C2=NC(=NC(=C2)C3(CC3)S(=O)(=O)C)C4=C5C=CNC5=CC=C4
Summary of the method: as §1

bafetinib = compound: Cc1ccc(NC(=O)c2ccc(CN3CC[C@H](N(C)C)C3)c(C(F)(F)F)c2)cc1Nc1nccc(-c2cncnc2)n1 [bafetinib]
Summary of the method: as §1

mubritinib = compound: FC(F)(F)c1ccc(/C=C/c2nc(COc3ccc(CCCCn4ccnn4)cc3)co2)cc1 [mubritinib]
Summary of the method: as §1

tozasertib = compound: Cc1cc(Nc2cc(N3CCN(C)CC3)nc(Sc3ccc(NC(=O)C4CC4)cc3)n2)n[nH]1 [tozasertib]
Summary of the method: as §1

| Target | log2 fold change [1] | log2 fold change (crizotinib) | log2 fold change [2] | log2 fold change (duvelisib) | log2 fold change (gandotinib) | log2 fold change [3] | log2 fold change (doramapimod) | log2 fold change (ispinesib) | log2 fold change [4] | log2 fold change (nilotinib) | log2 fold change [5] | log2 fold change (dasatinib) | log2 fold change [6] | log2 fold change [7] | log2 fold change [8] | log2 fold change (tipifarnib) | log2 fold change [9] | log2 fold change (bafetinib) | log2 fold change (mubritinib) | log2 fold change (tozasertib) |
| --- | --- | --- | --- | --- | --- | --- | --- | --- | --- | --- | --- | --- | --- | --- | --- | --- | --- | --- | --- | --- |
| SLC25A30 (UniProt Q5SVS4) | inactive: -0.037 | inactive: 0.07 | inactive: -0.111 | inactive: 0.058 | inactive: 0.094 | inactive: 0.083 | inactive: -0.137 | inactive: -0.054 | inactive: 0.17 | inactive: -0.118 | inactive: -0.07 | inactive: 0.029 | inactive: -0.053 | inactive: 0.103 | inactive: -0.117 | inactive: 0.059 |  |  |  |  |
| SLC6A6 (UniProt P31641) | inactive: 0.021 | inactive: 0.04 | inactive: -0.021 |  | inactive: -0.049 | inactive: -0.042 | inactive: -0.063 | inactive: -0.028 | inactive: -0.018 | inactive: 0.064 | inactive: -0.015 | inactive: -0.069 | inactive: 0.068 | inactive: -0.011 | inactive: -0.006 | inactive: 0.002 | inactive: -0.026 | inactive: -0.001 | inactive: 0.024 |  |
| SLC25A4 (UniProt P12235) | inactive: 0.004 | inactive: 0.112 | inactive: 0.01 |  | inactive: -0.004 | inactive: -0.034 | inactive: -0.053 | inactive: 0.028 | inactive: -0.097 | inactive: -0.004 | inactive: -0.03 | inactive: 0.033 | inactive: -0.014 | inactive: 0.022 | inactive: -0.005 | inactive: 0.026 | inactive: 0.093 | inactive: -0.027 | inactive: -0.024 |  |
| SLC27A1 (UniProt Q6PCB7) | inactive: 0.116 | inactive: 0.123 | inactive: -0.099 |  |  | inactive: 0.112 | inactive: 0.062 | inactive: 0.06 |  | inactive: -0.087 | inactive: -0.009 | inactive: -0.152 | inactive: 0.079 | inactive: -0.053 | inactive: 0.046 | inactive: 0.094 | inactive: 0.016 | inactive: 0.047 | active: 0.431 |  |
| SLC35B4 (UniProt Q969S0) | inactive: 0.016 | inactive: 0.256 |  |  |  |  | inactive: 0.038 |  |  | inactive: 0.027 | inactive: 0.016 |  | inactive: 0.1 |  |  |  | inactive: 0.048 | inactive: -0.12 | inactive: 0.032 |  |
| SLC39A8 (UniProt Q9C0K1) | inactive: 0.005 |  | inactive: -0.234 | inactive: -0.029 | inactive: -0.1 | inactive: -0.016 |  | inactive: -0.091 | inactive: -0.13 | inactive: 0.036 | inactive: -0.035 | inactive: 0 | inactive: -0.006 | inactive: 0.026 | inactive: 0.031 | inactive: 0.02 | inactive: -0.087 | inactive: -0.069 | inactive: 0.05 | inactive: -0.017 |
| SLC25A35 (UniProt Q3KQZ1) |  | inactive: 0.116 | inactive: 0.036 | inactive: -0.046 | inactive: 0.136 | inactive: -0.18 | inactive: -0.076 |  | inactive: -0.116 |  |  | inactive: 0.054 |  | inactive: 0.056 |  | inactive: 0.362 |  |  |  | inactive: -0.043 |
| SLC35E1 (UniProt Q96K37) |  | inactive: -0.099 | inactive: -0.021 | inactive: 0.034 | inactive: -0.135 | inactive: -0.069 | inactive: 0.4 | inactive: 0.035 | inactive: 0.063 | inactive: 0.004 | inactive: -0.035 | inactive: -0.003 | inactive: 0.007 | inactive: -0.122 | inactive: -0.003 | inactive: -0.051 | inactive: 0.019 | inactive: 0.029 | inactive: 0.031 | inactive: 0.061 |
| SLC27A6 (UniProt Q9Y2P4) |  |  | inactive: -0.208 |  |  |  |  | inactive: 0.103 |  | inactive: -0.201 | inactive: 0.108 |  | inactive: -0.025 | inactive: 0.055 | inactive: -0.123 |  | inactive: 0.077 | inactive: -0.095 | inactive: 0.11 | inactive: -0.191 |
| SLC36A1 (UniProt Q7Z2H8) |  | inactive: 0.133 |  | inactive: 0.239 |  | inactive: 0.017 | inactive: 0.075 |  |  |  |  | inactive: 0.035 |  |  |  |  |  |  | inactive: -0.087 |  |

— the supplement of paper PMC10849652
